PubChem BioAssay AID1159584, Peter MacCallum Cancer Centre | 2016
This is one part, drawn at random, of about 18,000 reagents. Reagents against one gene are numbered here. Not given: the amount of reagent, the time to read-out.

Assay: 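Knock-downs that harm CDH1-null cells more than parental MCF10A cells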 (primary screen)
System: human MCF10A breast epithelial cells, parental and CDH1-null
Knock-down reagent: siRNA against human genes
Measured: 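ATP luminescence (CellTiter-Glo) viability per line relative to mean mock wells over all plates, and the ratio of CDH1-null to parental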
Direction: CDH1-null / parental viability ratio: higher = CDH1-null cells survive relatively better than parental; CDH1-null viability vs mock: higher = more viable CDH1-null cells; parental viability vs mock: higher = more viable parental cells

gene | reagent no. | CDH1-null / parental viability ratio | CDH1-null viability vs mock (fraction of mock) | parental viability vs mock (fraction of mock)
ST8SIA3 (ST8 alpha-N-acetyl-neuraminide alpha-2,8-sialyltransferase 3) | 1 | 0.82 | 0.74 | 0.9
TSBP1 (testis expressed basic protein 1) | 1 | 0.91 | 0.6 | 0.66
ILK (integrin linked kinase) | 1 | 0.62 | 0.5 | 0.8
ILK (integrin linked kinase) | 2 | 0.66 | 0.46 | 0.7
DAB2IP (DAB2 interacting protein) | 1 | 1.21 | 1.02 | 0.84
NCSTN (nicastrin) | 1 | 1.61 | 0.87 | 0.54
TMEM248 (transmembrane protein 248) | 1 | 1 | 0.98 | 0.98
PCSK9 (proprotein convertase subtilisin/kexin type 9) | 1 | 0.73 | 0.3 | 0.41
EXT1 (exostosin glycosyltransferase 1) | 1 | 1.03 | 1.01 | 0.98
CFAP46 (cilia and flagella associated protein 46) | 1 | 0.55 | 0.41 | 0.74
CFAP46 (cilia and flagella associated protein 46) | 2 | 1.09 | 0.83 | 0.76
CFHR5 (complement factor H related 5) | 1 | 1.54 | 0.4 | 0.26
SMC1A (structural maintenance of chromosomes 1A) | 1 | 0.98 | 0.88 | 0.9
GCM1 (GCM transcription factor 1) | 1 | 1.07 | 1.06 | 0.99
GPATCH2L (G-patch domain containing 2 like) | 1 | 0.95 | 0.54 | 0.57
HGF (hepatocyte growth factor) | 1 | 1.24 | 0.94 | 0.76
GTPBP2 (GTP binding protein 2) | 1 | 1 | 0.88 | 0.88
CFAP69 (cilia and flagella associated protein 69) | 1 | 1.12 | 0.9 | 0.8
UBA3 (ubiquitin like modifier activating enzyme 3) | 1 | 1.1 | 0.99 | 0.9
MFAP3 (microfibril associated protein 3) | 1 | 1.1 | 0.99 | 0.9
REV1 (REV1 DNA directed polymerase) | 1 | 1.05 | 1.03 | 0.98
STK35 (serine/threonine kinase 35) | 1 | 0.79 | 0.66 | 0.84
CYP2D6 | 1 | 0.78 | 0.68 | 0.87
SELENOS (selenoprotein S) | 1 | 0.92 | 0.88 | 0.96
CALML4 (calmodulin like 4) | 1 | 1.21 | 0.94 | 0.78
YIPF4 (Yip1 domain family member 4) | 1 | 0.93 | 0.78 | 0.84
ALG14 (ALG14 UDP-N-acetylglucosaminyltransferase subunit) | 1 | 1.04 | 1.04 | 1
PDE4D (phosphodiesterase 4D) | 1 | 1.11 | 1 | 0.9
SPTBN4 (spectrin beta, non-erythrocytic 4) | 1 | 1.16 | 1.29 | 1.11
TBC1D16 (TBC1 domain family member 16) | 1 | 1.03 | 0.95 | 0.92
ITPK1 (inositol-tetrakisphosphate 1-kinase) | 1 | 0.55 | 0.42 | 0.76
FGD2 (FYVE, RhoGEF and PH domain containing 2) | 1 | 1.11 | 0.8 | 0.72
OR2T3 (olfactory receptor family 2 subfamily T member 3) | 1 | 1.14 | 0.96 | 0.84
INS-IGF2 (INS-IGF2 readthrough) | 1 | 1.01 | 0.91 | 0.9
EPHB4 (EPH receptor B4) | 1 | 0.79 | 0.77 | 0.98
UCKL1 (uridine-cytidine kinase 1 like 1) | 1 | 0.99 | 1.06 | 1.07
OR5M8 (olfactory receptor family 5 subfamily M member 8) | 1 | 0.93 | 0.92 | 0.99
EXOC3L1 (exocyst complex component 3 like 1) | 1 | 1 | 0.86 | 0.86
IKZF5 (IKAROS family zinc finger 5) | 1 | 1.04 | 0.56 | 0.54
MARK4 (microtubule affinity regulating kinase 4) | 1 | 0.94 | 0.66 | 0.7
CHIC2 (cysteine rich hydrophobic domain 2) | 1 | 1.23 | 0.86 | 0.7
GSDMC (gasdermin C) | 1 | 1.05 | 1.07 | 1.02
WWTR1 (WW domain containing transcription regulator 1) | 1 | 1.02 | 0.87 | 0.85
SSC4D | 1 | 0.85 | 0.71 | 0.84
SERPINB5 (serpin family B member 5) | 1 | 0.72 | 0.52 | 0.72
CALR3 (calreticulin 3) | 1 | 1.09 | 0.94 | 0.86

No new results follow: 3 of the entries above.
gene | reagent no. | CDH1-null / parental viability ratio | CDH1-null viability vs mock (fraction of mock) | parental viability vs mock (fraction of mock)
ITPK1 (inositol-tetrakisphosphate 1-kinase) | 1 | 0.55 | 0.42 | 0.76
FGD2 (FYVE, RhoGEF and PH domain containing 2) | 1 | 1.11 | 0.8 | 0.72
OR2T3 (olfactory receptor family 2 subfamily T member 3) | 1 | 1.14 | 0.96 | 0.84
